No constants are given. Whether binding was seen depends on the method and setting. Binding seen in cells or lysates may run through a third protein. Some entries that bind do so weakly or less than the wild type. Tags and fused reporters may be left off the sequences shown. One block for each binder: values may come before it.
Assays:
[1] = molecular target: Karyopherin beta2 (Kapβ2), full length, wild type (human) (UniProt Q92973); test: summary table of the pull-down assays of Kapβ2 with immobilized GST fusions
[2] = molecular target: Karyopherin beta2 (Kapβ2), full length, wild type (human) (UniProt Q92973); test: GST pull-down, Coomassie-stained gel (FIG. 12A)
[3] = molecular target: Karyopherin beta2 (Kapβ2), full length, wild type (human) (UniProt Q92973); test: pull-down: Kapβ2 added to GST fusion immobilized on glutathione sepharose, SDS-PAGE, Coomassie Blue
[4] = molecular target: Karyopherin beta2 (Kapβ2), full length, wild type (human) (UniProt Q92973); test: GST pull-down (FIG. 14)
[5] = molecular target: T1, Kapβ2 W460A/W730A; test: pull-down: Kapβ2 mutant added to immobilized GST-NLS, SDS-PAGE, stained gel
T1 sequence: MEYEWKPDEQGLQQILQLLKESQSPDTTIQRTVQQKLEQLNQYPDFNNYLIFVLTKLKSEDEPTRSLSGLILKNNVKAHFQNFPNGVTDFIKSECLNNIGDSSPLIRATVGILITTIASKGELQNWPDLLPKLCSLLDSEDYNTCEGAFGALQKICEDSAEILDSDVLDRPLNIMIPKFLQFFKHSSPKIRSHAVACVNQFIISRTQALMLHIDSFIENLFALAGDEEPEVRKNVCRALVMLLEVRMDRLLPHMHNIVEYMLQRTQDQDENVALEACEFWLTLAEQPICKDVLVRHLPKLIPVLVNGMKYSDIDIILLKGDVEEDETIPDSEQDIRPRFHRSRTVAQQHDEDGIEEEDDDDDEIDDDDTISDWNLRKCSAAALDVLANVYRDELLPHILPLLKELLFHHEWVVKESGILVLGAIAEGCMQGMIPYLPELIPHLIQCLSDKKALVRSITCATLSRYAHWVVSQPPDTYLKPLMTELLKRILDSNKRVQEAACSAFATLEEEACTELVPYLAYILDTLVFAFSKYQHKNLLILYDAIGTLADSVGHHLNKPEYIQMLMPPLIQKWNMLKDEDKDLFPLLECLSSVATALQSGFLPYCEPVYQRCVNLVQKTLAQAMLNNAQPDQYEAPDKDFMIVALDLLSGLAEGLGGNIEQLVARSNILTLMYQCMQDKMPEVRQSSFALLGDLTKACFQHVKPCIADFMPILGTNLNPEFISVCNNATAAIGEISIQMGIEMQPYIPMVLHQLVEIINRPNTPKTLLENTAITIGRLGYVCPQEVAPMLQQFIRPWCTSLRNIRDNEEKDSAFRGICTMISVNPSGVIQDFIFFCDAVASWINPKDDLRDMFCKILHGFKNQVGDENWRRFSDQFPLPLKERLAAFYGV

[6] = molecular target: Karyopherin beta2 (Kapβ2), full length, wild type (human) (UniProt Q92973); test: GST pull-down (FIG. 6E)

binding [1]: binds
binding [2]: binds
binding [3]: binds
binding [4]: binds
binding [5]: binds
B1: GST-hnRNP M-NLS (GST-fusion of hnRNP M residues 41-70) (peptide, human, UniProt P52272 41-70, looked up, not shown: a dimerising Fc or GST)
chain: ERPAQNEKRKEKNIKRGGNRFEPYANPTKR

binding [6]: binds
B2: GST-HCC1, full length (protein, human, UniProt Q14498 2-530, looked up, not shown: a dimerising Fc or GST)
chain: ADDIDIEAMLEAPYKKDENKLSSANGHEERSKKRKKSKSRSRSHERKRSKSKERKRSRDRERKKSKSRERKRSRSKERRRSRSRSRDRRFRGRYRSPYSGPKFNSAIRGKIGLPHSIKLSRRRSRSKSPFRKDKSPVREPIDNLTPEERDARTVFCMQLAARIRPRDLEEFFSTVGKVRDVRMISDRNSRRSKGIAYVEFVDVSSVPLAIGLTGQRVLGVPIIVQASQAEKNRAAAMANNLQKGSAGPMRLYVGSLHFNITEDMLRGIFEPFGRIESIQLMMDSETGRSKGYGFITFSDSECAKKALEQLNGFELAGRPMKVGHVTERTDASSASSFLDSDELERTGIDLGTTGRLQLMARLAEGTGLQIPPAAQQALQMSGSLAFGAVAEFSFVIDLQTRLSQQTEASALAAAASVQPLATQCFQLSNMFNPQTEEEVGWDTEIKDDVIEECNKHGGVIHIYVDKNSAQGNVYVKCPSIAAAIAAVNALHGRWFAGKMITAAYVPLPTYHNLFPDSMTATQLLVPSRR

From US20080015137A1
